Measurements reported in PubChem BioAssay AID652272 (Drosophila RNAi Screening Center, 2013).
The screen tested about 21,000 reagents; this is an unselected part of those that have a named target and a result. Of all reagents, 503 (2.4%) were called active. 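Raw plate light values, not normalised; calls rest on replicate z-scores that were not deposited; hits include reporter decreases as well as increases.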 Names joined by + are all predicted targets of the reagent. The record does not give: the amount of reagent, the time to read-out.

Aim: 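Finding fly genes that regulate Hedgehog signal transduction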 (primary screen)
System: Drosophila clone 8 (Cl8) cells
Knock-down reagent: long dsRNA against Drosophila genes
Detection: 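Plate reader light from a firefly reporter under a ptc promoter fragment that responds to Hedgehog, with Renilla light as transfection reference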
Direction: firefly Hh reporter signal: higher = more ptc reporter light; Renilla reference signal: higher = more Renilla control light
Active means: 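Called a hit if the two-replicate mean z-score lies below -2 or above +3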
Meaning of the calls: active = hit: reporter lowered or raised; inactive = not a hit

gene | DRSC id | firefly Hh reporter signal, replicate 1 | firefly Hh reporter signal, replicate 2 | Renilla reference signal, replicate 1 | Renilla reference signal, replicate 2 | Outcome
spdi | DRSC18487 | 1.37e5 | 94210 | 2976 | 2624 | inactive
spdi | DRSC18488 | 83792 | 1.66e5 | 3181 | 6384 | inactive
Gfat1 | DRSC21219 | 64066 | 1.87e5 | 1431 | 7552 | inactive
CG43341 | DRSC05055 | 1.29e5 | 3.13e5 | 3464 | 11736 | inactive
CG9312 | DRSC16471 | 1.70e5 | 1.17e5 | 5829 | 4294 | inactive
CG6610 | DRSC10674 | 77291 | 43417 | 9284 | 3493 | inactive
l(1)G0196 | DRSC20591 | 4.83e5 | 1.95e5 | 29606 | 4345 | inactive
l(1)G0196 | DRSC20629 | 90173 | 1.81e5 | 2960 | 9414 | inactive
CG6652 | DRSC10686 | 77831 | 58577 | 3008 | 2201 | inactive
CG2861 | DRSC18229 | 62368 | 1.87e5 | 1729 | 7036 | inactive
Grl36b | DRSC01627 | 1.03e5 | 2.07e5 | 2490 | 10069 | inactive
ZnT41F | DRSC04850 | 1.19e5 | 72880 | 4512 | 2756 | inactive
Scgdelta | DRSC18544 | 73446 | 2.65e5 | 2058 | 10529 | inactive
Cpr78Cb | DRSC11847 | 1.05e5 | 1.12e5 | 3859 | 3152 | inactive
Ir25a | DRSC00462 | 90884 | 76951 | 2715 | 6066 | inactive
mthl5 | DRSC16155 | 65861 | 81856 | 2264 | 2361 | inactive
AOX2 | DRSC15338 | 88229 | 67096 | 1760 | 2016 | inactive
Anp | DRSC14112 | 84726 | 83826 | 1907 | 2541 | inactive
CG32373 | DRSC08895 | 88618 | 2.17e5 | 2282 | 8100 | inactive
PRL-1 | DRSC03393 | 1.25e5 | 1.06e5 | 3169 | 7330 | inactive
Jra | DRSC07447 | 1.19e5 | 77065 | 4299 | 3680 | inactive
CG9083 + Tpc2 | DRSC04625 | 1.31e5 | 1.53e5 | 4992 | 5372 | inactive
Pxn | DRSC08685 | 2.34e5 | 1.52e5 | 8582 | 6200 | inactive

Not a retest: 2 of the entries above.
gene | DRSC id | firefly Hh reporter signal, replicate 1 | firefly Hh reporter signal, replicate 2 | Renilla reference signal, replicate 1 | Renilla reference signal, replicate 2 | Outcome
Jra | DRSC07447 | 1.19e5 | 77065 | 4299 | 3680 | inactive
CG9083 + Tpc2 | DRSC04625 | 1.31e5 | 1.53e5 | 4992 | 5372 | inactive
